Record: PubChem BioAssay AID652259 (Drosophila RNAi Screening Center, 2013)
The screen tested about 22,000 reagents; this is a random part of those with a known target gene and a result. Of all reagents, 233 (1.1%) got an active call. 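Light values are raw, unnormalised plate reads; the ratio scores behind the reporter calls were not deposited.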 A number with no mark means an inactive call. Names joined by + are all predicted targets of the reagent. The record does not give: the amount of reagent, the time to read-out, the dose of the treatment.

Test: 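Knock-downs that push a Wingless-driven reporter up or down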 (primary screen)
Cells: Drosophila clone 8 imaginal disc epithelial cells
Reagents: long dsRNA against Drosophila genes
Challenge: pathway stimulated by co-transfected Wingless expression plasmid
Read-out: 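Firefly luciferase from a tcf-site Wingless reporter, measured alongside co-transfected Renilla luciferase that tracks transfection; pathway stimulated by a Wingless plasmid; the firefly-to-Renilla ratio is not deposited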
Direction: firefly reporter light: higher = more Wg reporter light, before normalisation; Renilla control light: higher = more transfected or surviving cells
Call rule: 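a knock-down is a candidate when at least two out of four statistical tests show it departing from its plate mean; one test alone signals a weak candidate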
Calls: active = candidate regulator (raises or lowers reporter); inactive = not a candidate

target gene	amplicon	reporter change call, replicate 1	firefly reporter light, replicate 1	firefly reporter light, replicate 2	Renilla control light, replicate 1	Renilla control light, replicate 2
CG30156	DRSC04959		19324		8112	
Ank	DRSC17127		1972	3816	796	1577
dco	DRSC16929		3664	8086	892	2484
CG2260	DRSC18223		2089	4263	1072	1208
CG7166	DRSC11809		15693		5634	
Osi15	DRSC12178		8647		1681	
Ag5r2	DRSC19328		18419		7931	
Syx8	DRSC10402		10440		5190	
Syx8	DRSC22498		8.17e5	7.02e5	2.26e5	108
CG32225	DRSC09657		2572		1431	
GckIII	DRSC15729		12549		2064	
RpL36	DRSC18708		22041		10810	
Oxp	DRSC06712		6225		2257	
CG11658	DRSC09852		7892		2869	
Pburs	DRSC02483		3200	9234	1448	3355
CG31998	DRSC17137		1843	7185	1040	2336
CG31998	DRSC17138		16966		14569	
CG13285	DRSC09960		2150	6963	1808	4668
CG9953	DRSC11106		1047	5377	1410	3875
drosha	DRSC07607		4380		1792	
fw	DRSC20334		18149		9170	
CG16964	DRSC02546		2640	5468	1064	3200
vas (retired record)	DRSC22007		6.79e5	7.09e5	2.21e5	2.29e5
kat-60L1	DRSC12184		9426		4034	
CG14613	DRSC20625		4176	7436	1513	2391
CG9514	DRSC20190		21001		9333	
CG9514	DRSC20191		18341		9292	
CG13999	DRSC02331		2081	5483	885	933
Ank2	DRSC08894		3763		1339	
Ank2	DRSC09666		1399	9085	1184	3435
Ank2	DRSC10338		1533	7098	887	2931
Ank2	DRSC11278		1072	8384	929	2388
Ank2	DRSC22922		6.67e5	6.06e5	2.86e5	93572
NimB2	DRSC22645		5.28e5	5.49e5	1.85e5	1.74e5
CG18735	DRSC04312		3028	7334	864	2599
CG2975	DRSC00556		2909	8944	1511	3558
RhoGEF4	DRSC11011		3994		1952	
ssp6	DRSC08791		3831		1413	
ssp6	DRSC10677		1472	8996	953	2410
CG34164	DRSC02837		2822	5751	1058	2339
CG18130	DRSC19790		21456		9269	
Rint1	DRSC11010		4729		1608	
CG13589	DRSC04225		3269	6948	1281	3260
CG14568	DRSC11729		25072		7638	
CG15431	DRSC00446		2882	4519	851	1981
sra	DRSC17015		3152	4285	560	1671
CG42367	DRSC21388		6.30e5	7.41e5	3.15e5	3.11e5
Usp14	DRSC02853		10499		4102	
EndoA	DRSC14775		2986	2653	1286	656
MFS1	DRSC04115		2476	6138	727	1862
Alp2	DRSC04354		3440	9093	954	3652
Or19b + Or19a	DRSC22604		6.50e5	6.26e5	2.33e5	1.26e5
CG15676	DRSC04267		2455	4523	881	1944
CG8420	DRSC16418		12874		3792	
ttm3	DRSC03736		2530	7851	843	3581
CG5267	DRSC06928		6656		2209	
CG11889 + CG11891	DRSC14426		20349		17099	
CG11889 + CG11891	DRSC14427		19517		12249	
mus304	DRSC11372		4736		2355	
RNF220	DRSC15652		4213	8739	1449	2488
CG17283	DRSC15219		11577		3705	
Vmat + CG13330	DRSC06365		12421		3077	
ix	DRSC06325		5820		1783	
dmt	DRSC16932		25106		3504	
Polr2H	DRSC11642		7733		1829	
CG4572	DRSC15603		1669	5297	856	2161
Hr51	DRSC06627		6672		2741	
Hr51	DRSC22829		3.49e5	3.55e5	1.61e5	1.89e5
CG7025	DRSC03002		2281	6483	490	2711
CG43342	DRSC13561		2928		1351	
fl(2)d	DRSC07620		8189		2162	
CG43063	DRSC12948		3056		1122	
D	DRSC11132		6085		1958	
CG43393	DRSC03917		16048		8426	
Eglp1	DRSC04502		20279		4332	
Trf4-1	DRSC17775		25800		13578	
Cyp4aa1	DRSC07368		3349		1702	
CG31549	DRSC21688		7.00e5	5.89e5	3.07e5	2.41e5
CG10062	DRSC05960		17133		5129	
CG10062	DRSC22535		8.36e5	8.18e5	3.86e5	3.70e5
CG34034	DRSC13506		4061		2033	
CG9890	DRSC04590		2740	8762	791	2609
Vti1a	DRSC08563		13688		4133	
TwdlK	DRSC16045		4519		1595	
Jhbp7	DRSC14408		23882		16488	
Lamp1	DRSC03727		2185	5125	788	2021
KFase	DRSC03258		2616	4305	816	772
CG10104	DRSC05964		8806		2696	
CG13737	DRSC10064	Wg reporter activity lowered (active)	5226		3445	
Gnptab	DRSC07057		3168	5863	746	2172
Nelf-A	DRSC15903		5144	8681	1872	2711
qm	DRSC11386		2134	7780	1620	3721
CG32354	DRSC10763		5316		1841	
CG32354	DRSC10775		2117	9554	2192	5808
CG32354	DRSC21919		5.99e5	6.22e5	2.95e5	3.09e5

Called active, of those listed so far:
target gene	amplicon	reporter change call, replicate 1	firefly reporter light, replicate 1	firefly reporter light, replicate 2	Renilla control light, replicate 1	Renilla control light, replicate 2
CG13737	DRSC10064	Wg reporter activity lowered (active)	5226		3445	
